Where “and” joins values, the source holds several entries; their conditions need not be identical. Equal values may be shown once. Some of the results follow. For some assays here: The exact form of the protein is not confirmed.
How the values were obtained:
Assay in all cases: protein microarray (ProtoArray v5.0), streptavidin-Alexa Fluor 647
Details in all cases: 3'-biotin; 20 mM Tris (pH 7.5), 5 mM MgCl2, 100 mM KCl, 0.1% Tween-20, A/T-rich and random oligonucleotide blockers; temperature not stated; high values mean tight binding
CCDC98 = CCDC98 (UniProt Q6UWZ7)
CCL14 (human) = test system: CCL14 (human)
CCL3 (human) = test system: CCL3 (human)
CCL3L3 (human) = test system: CCL3L3 (human)
CCL4 (human) = test system: CCL4 (human)
CCND3 = target: T1, CCND3 (UniProt P30281)
T1 sequence: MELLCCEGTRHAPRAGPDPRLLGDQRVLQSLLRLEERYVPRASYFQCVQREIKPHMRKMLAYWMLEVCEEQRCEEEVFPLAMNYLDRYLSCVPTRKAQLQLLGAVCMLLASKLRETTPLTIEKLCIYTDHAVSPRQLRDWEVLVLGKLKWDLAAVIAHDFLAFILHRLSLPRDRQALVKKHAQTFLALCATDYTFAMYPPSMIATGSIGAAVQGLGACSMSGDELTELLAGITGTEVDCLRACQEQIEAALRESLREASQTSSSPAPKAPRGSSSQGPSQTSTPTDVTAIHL

The chains behind the UniProt entries cited, without tags or fusion partners. Where a name states a change or a piece, a line headed by the entry shows the natural chain unless it says otherwise.
UniProt Q6UWZ7: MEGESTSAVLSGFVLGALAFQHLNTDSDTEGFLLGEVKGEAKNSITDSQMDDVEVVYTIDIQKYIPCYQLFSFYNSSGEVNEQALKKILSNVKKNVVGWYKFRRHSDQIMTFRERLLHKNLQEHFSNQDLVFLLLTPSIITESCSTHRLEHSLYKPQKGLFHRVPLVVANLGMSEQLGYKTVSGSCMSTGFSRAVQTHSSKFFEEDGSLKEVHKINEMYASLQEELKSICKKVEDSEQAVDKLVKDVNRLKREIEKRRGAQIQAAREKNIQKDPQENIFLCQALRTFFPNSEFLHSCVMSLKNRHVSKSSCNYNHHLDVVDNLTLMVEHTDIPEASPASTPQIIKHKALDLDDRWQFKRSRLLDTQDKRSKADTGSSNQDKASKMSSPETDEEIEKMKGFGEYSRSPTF

CCNDBP1 (human) = test system: CCNDBP1 (human)
CCNF = target: T2, CCNF (UniProt P41002)
T2 sequence: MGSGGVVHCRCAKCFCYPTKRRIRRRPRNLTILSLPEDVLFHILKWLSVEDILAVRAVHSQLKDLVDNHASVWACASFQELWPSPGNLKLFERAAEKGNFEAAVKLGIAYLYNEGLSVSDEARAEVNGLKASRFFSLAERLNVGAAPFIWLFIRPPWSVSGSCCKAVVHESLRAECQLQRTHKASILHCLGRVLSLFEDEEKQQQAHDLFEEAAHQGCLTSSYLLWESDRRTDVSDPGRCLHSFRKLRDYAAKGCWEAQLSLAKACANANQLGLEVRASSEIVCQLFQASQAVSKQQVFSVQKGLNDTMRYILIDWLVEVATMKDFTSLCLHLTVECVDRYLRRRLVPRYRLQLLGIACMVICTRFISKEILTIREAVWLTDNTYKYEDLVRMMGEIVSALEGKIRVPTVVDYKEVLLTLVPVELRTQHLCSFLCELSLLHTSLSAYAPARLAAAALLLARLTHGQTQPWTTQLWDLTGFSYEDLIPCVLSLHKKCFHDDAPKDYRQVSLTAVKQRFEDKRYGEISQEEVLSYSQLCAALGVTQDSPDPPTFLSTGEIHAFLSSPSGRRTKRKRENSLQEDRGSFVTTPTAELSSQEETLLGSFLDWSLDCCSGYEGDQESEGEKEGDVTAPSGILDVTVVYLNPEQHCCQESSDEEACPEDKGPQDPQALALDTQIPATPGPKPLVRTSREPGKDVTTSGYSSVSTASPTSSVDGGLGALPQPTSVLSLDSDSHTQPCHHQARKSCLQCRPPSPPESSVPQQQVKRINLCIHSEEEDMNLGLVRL

CCRK (human) = test system: CCRK (human)
CCT2 (human) = test system: CCT2 (human)
CCT8 (human) = test system: CCT8 (human)
CD209 = target: T3, CD209 (UniProt Q9NNX6)
T3 sequence: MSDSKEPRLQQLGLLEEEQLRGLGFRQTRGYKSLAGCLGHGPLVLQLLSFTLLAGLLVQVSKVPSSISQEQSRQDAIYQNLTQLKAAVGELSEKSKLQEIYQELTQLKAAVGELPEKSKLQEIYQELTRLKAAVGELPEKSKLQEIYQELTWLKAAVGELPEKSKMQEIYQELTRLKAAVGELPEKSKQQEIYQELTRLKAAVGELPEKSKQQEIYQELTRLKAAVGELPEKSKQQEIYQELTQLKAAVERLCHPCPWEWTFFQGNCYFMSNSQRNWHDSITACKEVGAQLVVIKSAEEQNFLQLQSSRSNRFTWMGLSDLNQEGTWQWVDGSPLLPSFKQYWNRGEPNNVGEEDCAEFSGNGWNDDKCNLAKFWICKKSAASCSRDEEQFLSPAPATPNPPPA

CD24 (human) = test system: CD24 (human)
CD244 (human) = test system: CD244 (human)
CD300LF = target: T4, CD300LF (UniProt Q8TDQ1)
T4 sequence: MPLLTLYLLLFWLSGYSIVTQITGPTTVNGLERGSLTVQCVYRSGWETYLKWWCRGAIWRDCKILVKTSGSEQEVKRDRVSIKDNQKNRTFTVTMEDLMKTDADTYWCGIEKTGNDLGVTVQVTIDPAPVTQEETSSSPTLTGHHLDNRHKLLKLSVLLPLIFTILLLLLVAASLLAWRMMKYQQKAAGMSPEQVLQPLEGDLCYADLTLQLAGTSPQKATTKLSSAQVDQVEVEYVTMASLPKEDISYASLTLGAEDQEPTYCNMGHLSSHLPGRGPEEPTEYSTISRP

CD3D (human) = test system: CD3D (human)
CD40 (human) = test system: CD40 (human)
CD44 antigen (human) = test system: CD44 antigen (human)
CD74 (human) = test system: CD74 (human)
CD9 (human) = test system: CD9 (human)

Sequence: GGGAGGCTGAGGCAGG [G4-1 biotinylated (PQS2)]
- binding signal (CCDC98): -0.325 z-score
- binding signal (CCL14 (human)): -0.308 z-score
- binding signal (CCL3 (human)): -0.35 z-score
- binding signal (CCL3L3 (human)): -0.332 z-score
- binding signal (CCL4 (human)): -0.336 z-score
- binding signal (CCND3): -0.327 z-score
- binding signal (CCNDBP1 (human)): -0.328 z-score
- binding signal (CCNF): -0.348 z-score
- binding signal (CCRK (human)): -0.324 z-score
- binding signal (CCT2 (human)): -0.336 z-score
- binding signal (CCT8 (human)): -0.35 z-score and -0.312 z-score
- binding signal (CD209): -0.354 z-score
- binding signal (CD24 (human)): -0.278 z-score
- binding signal (CD244 (human)): -0.335 z-score
- binding signal (CD300LF): -0.3 z-score
- binding signal (CD3D (human)): -0.316 z-score
- binding signal (CD40 (human)): -0.322 z-score
- binding signal (CD44 antigen (human)): -0.331 z-score
- binding signal (CD74 (human)): -0.352 z-score
- binding signal (CD9 (human)): -0.349 z-score

Reference: paper PMC5996148
